Test [1] deals with 成熟型カニクイザルVEGF-D(Hisタッグ付加、二量体、参考例3) (cynomolgus monkey). In words: competition cell ELISA, antibody titrated against 2.5 ug/mL cynomolgus VEGF-D on cynomolgus VEGFR-3 CHO cells. A general note: ELISA stands for enzyme-linked immunosorbent assay.
The target in test [2] is 成熟型ヒトVEGF-D(Hisタッグ付加、二量体、参考例3) (human) (UniProt O43915). Kind of test: competition cell ELISA, antibody titrated against 2.5 ug/mL human VEGF-D on human VEGFR-3 CHO cells.

Chains of the proteins cited; added tags and fusions are not shown. Lines headed by an entry give the natural chain unless they say otherwise; changes in a name come on top.
UniProt O43915: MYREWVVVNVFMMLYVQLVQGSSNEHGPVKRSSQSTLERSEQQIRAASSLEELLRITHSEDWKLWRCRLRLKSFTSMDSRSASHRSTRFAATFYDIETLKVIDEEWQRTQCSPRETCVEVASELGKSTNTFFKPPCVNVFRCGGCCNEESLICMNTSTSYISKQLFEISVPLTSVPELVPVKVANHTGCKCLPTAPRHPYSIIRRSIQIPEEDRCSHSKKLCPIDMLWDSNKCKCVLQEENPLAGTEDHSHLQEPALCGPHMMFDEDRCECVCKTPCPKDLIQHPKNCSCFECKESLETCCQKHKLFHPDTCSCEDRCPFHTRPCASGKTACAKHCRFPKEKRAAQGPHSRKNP

These are yes or no findings as the source states them, for the method shown. Some entries that bind do so weakly or less than the wild type.

B1: キメラVE48抗体 (antibody, human IgG1, kappa, V domains shown)
VH: QVTLKESGPGILQPSQTLSLTCSFSGFSLSTYGMGVGWIRQPSGKGLEWLANIWWNDDKYYNPVLRSRLTISKDTSNNQVFLKISIVDTADTATYYCVQVTNPFVFWGQGTLVTVSA
VL: DVVMTQTPLSLPVSLGDQASISCRSSQSLVHNNGNTYLHWYLQKPGQSPKLLIYKVTNRFSGVPDRFSGSGSGTDFTLKISRVEAEDLGVYFCSQSTHVPWTFGGGTKLEIER
On to B1, for which the binding entry in test [1] and in test [2] was “binds” throughout.

The values are drawn from patent JP2011219380A.
